# PubChem BioAssay AID743121, NCATS | 2013
# Purpose: 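Knock-downs that sensitise breast cancer cells to camptothecin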 (primary screen)
# System: MDA-MB-231 cells, a human breast cancer line
# Knock-down reagent: single siRNA against human genes, 20 nM siRNA (0.8 pmol per well)
# Timing: 120 h (drug added 48 h after transfection, read 72 h later)
# Treatment: camptothecin 20 nM (about EC30) for 72 h; vehicle 0.1% DMSO in parallel plates
# Detection: 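Cell viability by ATP luminescence (CellTiter-Glo) as % of non-targeting siRNA wells, and the log2 ratio of viability without drug over viability with camptothecin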
# Reading the numbers: log2 vehicle/camptothecin viability: higher = stronger sensitisation to camptothecin; viability with camptothecin and viability without drug: higher = more viable cells
# Call rule: 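Each gene scored by redundant siRNA activity (RSA) over its individual siRNA ratios; a gene is called active at p < 0.001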
# The deposit covers about 26,000 reagents; this is an unselected part. In the full data, 167 (0.63%) are marked active. 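Calls are per gene from RSA p-values that are not deposited; an individual active-marked siRNA can sensitise only weakly.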 Reagents against one gene are numbered here.
gene knocked down,siRNA no.,log2 vehicle/camptothecin viability,viability with camptothecin (% of control),viability without drug (% of control),Call
HGD,1,-0.0659,28.2,26.9,inactive
HGD,2,-0.39,81.6,62.3,inactive
HGD,3,1.4,5.26,13.9,inactive
HGD,4,-0.174,84.8,75.2,inactive
TOP1,1,-0.158,108,96.5,inactive
TOP1,2,-0.501,81.9,57.9,inactive
TOP1,3,-0.284,118,96.6,inactive
CNKSR1,1,-0.328,72,57.4,inactive
CNKSR1,2,0.626,26.6,41.1,inactive
CNKSR1,3,-0.376,86.7,66.8,inactive
CNKSR1,4,-0.613,102,66.5,inactive
IL2,1,-0.453,76.4,55.8,inactive
IL2,2,-0.00228,99.8,99.7,inactive
IL2,3,-0.259,68.1,56.9,inactive
IL1RAP,1,-0.0093,114,114,inactive
IL1RAP,2,-0.436,19.5,14.4,inactive
IL1RAP,3,-0.273,118,97.6,inactive
IL1RAP,4,0.00143,99.6,99.7,inactive
RPL13,1,-0.138,75.3,68.4,inactive
RPL13,2,-0.357,100,78.4,inactive
RPL13,3,-0.14,98.5,89.4,inactive
RPL13,4,-0.477,81.1,58.3,inactive
HAGH,1,0.294,67.1,82.3,inactive
HAGH,2,-0.342,73.9,58.3,inactive
HAGH,3,-0.436,63,46.6,inactive
HAGH,4,-0.307,59.1,47.8,inactive
CAPN11,1,-0.0164,43,42.5,inactive
CAPN11,2,-0.297,21.6,17.6,inactive
CAPN11,3,-0.00747,54,53.7,inactive
CAPN11,4,-0.267,103,85.7,inactive
KCNG2,1,-0.445,65.1,47.8,inactive
KCNG2,2,-0.53,82.4,57,inactive
KCNG2,3,-0.444,100,73.9,inactive
KCNG2,4,0.00927,84.2,84.7,inactive
ARHGEF4,1,0.376,5.32,6.9,inactive
ARHGEF4,2,-0.212,103,88.9,inactive
ARHGEF4,3,-0.047,25.8,25,inactive
ARHGEF4,4,-0.208,64.1,55.5,inactive
UPF1,1,0.575,46,68.5,active
UPF1,2,0.16,55.4,61.9,active
UPF1,3,0.558,48.4,71.2,active
UPF1,4,1.09,27,57.6,active
ITPK1,1,-0.206,54.9,47.6,inactive
ITPK1,2,-0.263,90.3,75.3,inactive
ITPK1,3,0.0448,29.8,30.8,inactive
ITPK1,4,-0.416,85,63.7,inactive
